Reference: patent US20240342215A1
Results are given in words; binding and its absence hold for the method and conditions named. Some entries that bind do so weakly or less than the wild type. Tags and fused reporters may be left off the sequences shown.

Target: T1, PE labeled CLL1-Fc reagent (Creative Biomart) (UniProt Q5QGZ9)
T1 sequence (PE label, looked up): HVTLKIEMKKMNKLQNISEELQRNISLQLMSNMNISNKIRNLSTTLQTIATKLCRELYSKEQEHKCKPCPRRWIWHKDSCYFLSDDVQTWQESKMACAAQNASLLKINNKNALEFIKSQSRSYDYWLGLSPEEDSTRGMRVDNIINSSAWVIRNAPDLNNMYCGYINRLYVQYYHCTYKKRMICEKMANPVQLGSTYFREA
Assay: flow cytometry; PE labeled CLL1-Fc staining of transduced T cells

B1: MAGEA4-reactive, HLA-A2-restricted TCR embedded with tandem VHHs targeting human CD33 and CLL1; TRB-P2A-CLL1-CD33.VHH-mLNK.1xG4S-TRA (SEQ ID NO: 97) (TCR)
TCR beta: DSGVTQTPKHLITATGQRVTLRCSPRSGDLSVYWYQQSLDQGLQFLIQYYNGEERAKGNILERFSAQQFPDLHSELNLSSLELGDSALYFCASSGGDGDEQFFGPGTRLTVLEDLKNVFPPEVAVFEPSKAEIAHTQKATLVCLATGFYPDHVELSWWVNGKEVHSGVSTDPQPLKEQPALNDSRYCLSSRLRVSATFWQNPRNHFRCQVQFYGLSENDEWTQDRAKPVTQIVSAEAWGRADCGITSASYHQGVLSATILYEILLGKATLYAVLVSALVLMAMVKRKDSRG
TCR alpha: EVQLVESGGGEVQPGGSLRLSCAASGFLFSIYDMNWYRQAPGKEREWVAGITNNGYSTAYAESVKGRFTISRDNAKNTIYLQMSSLRAEDTAVYYCHADLTKAYDVEYAWGQGTLVTVKPGGGGSGGGGSEVQLVESGGGEVQPGGSLRLSCAASRSSGIDVMGWYRQAPGKERELVAEISGVGDTNYAASLADRFTVSRDNAKNTVYLQMSSLRAEDTAVYYCNAHSFLDLVGAWGQGTLVTVKPLEKTGGGGSAQKITQTQPGMFVQEKEAVTLDCTYDTSDPSYGLFWYKQPSSGEMIFLIYQGSYDQQNATEGRYSLNFQKARKSANLVISASQLGDSAMYFCAMSGGYTGGFKTIFGAGTRLFVKANIQNPDPAVYQLRDSKSSDKSVCLFTDFDSQTNVSQSKDSDVYITDKTVLDMRSMDFKSNSAVAWSNKSDFACANAFNNSIIPEDTFFPSSDVPCDVKLVEKSFETDTNLNFQNLLVIVLRILLLKVAGFNLLMTLRLWSS
binding: binds
